PubChem BioAssay AID1159578 | Peter MacCallum Cancer Centre – 2015
Here is one part, drawn at random, of about 18,000 deposited reagents. Of all reagents, about 1,030 (5.7%) were called active. 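Inactive calls also include pools with fewer than 3300 nuclei, whose migration was not assessed.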 Raw values vary from plate to plate and are shown uncorrected. Further read-outs or replicates are left out here.

Assay: 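siRNA pools altering how lymphatic endothelial cells close a scratch wound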 (primary screen)
Cells: human lymphatic endothelial cells
Reagents: siRNA pool against human genes, 40 nM
Timing: 48 h after transfection
Measured: 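Cells stained with dye and imaged after a scratch; covered wound area and nuclei counted, duplicates averaged, migration set against mock wells and turned into a robust z-score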
Scale: migration robust z-score: higher = faster migration into the scratch; nuclei per well: higher = more cells in the well
Hit rule: 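Migration changed when robust z exceeds 2 or falls below -2 and mean nuclei number is at least 3300; otherwise not called changed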
Meaning of the calls: active = migration changed; inactive = no migration change, or too few cells

gene	migration robust z-score	nuclei per well, duplicate mean	outcome
MYO1B (GeneID 4430)	-0.76	5762	inactive
CCL28 (GeneID 56477)	0.99	5799	inactive
ARL2BP (GeneID 23568)	1.19	6500	inactive
NR0B2 (GeneID 8431)	0.29	3743	inactive
PTCD1 (GeneID 26024)	-0.58	6106	inactive
EIF1AY (GeneID 9086)	1.04	5752	inactive
ABITRAM (GeneID 54942)	-1.62	6014	inactive
FAM220A (GeneID 84792)	0.68	5888	inactive
CST6 (GeneID 1474)	0.51	5699	inactive
LRRN4 (GeneID 164312)	1.28	6076	inactive
PRAMEF6 (GeneID 440561)	-0.53	5040	inactive
KRT39 (GeneID 390792)	0.26	5606	inactive
NLGN3 (GeneID 54413)	0.57	4713	inactive
TMEM38A (GeneID 79041)	-0.74	6538	inactive
CDK17 (GeneID 5128)	0.05	6972	inactive
XYLT1 (GeneID 64131)	-0.99	4986	inactive
ENDOV (GeneID 284131)	-1.06	5822	inactive
FHIP1B (GeneID 84067)	1.62	6536	inactive
GDF10 (GeneID 2662)	-0.57	5732	inactive
PIGG (GeneID 54872)	-0.57	6038	inactive
PLCL2 (GeneID 23228)	0.52	6821	inactive
RNF43 (GeneID 54894)	-1.6	5060	inactive
PTGDR (GeneID 5729)	0.02	6444	inactive
SLC25A18 (GeneID 83733)	0.21	6104	inactive
PNPLA2 (GeneID 57104)	0.36	5036	inactive
BID (GeneID 637)	1.01	6457	inactive
GNA12 (GeneID 2768)	-0.62	4982	inactive
RBMY1A1 (GeneID 5940)	3.07	6535	active
CLPSL2 (GeneID 389383)	1.06	4470	inactive
SLC25A52 (GeneID 147407)	-0.83	5024	inactive
EIF2AK4 (GeneID 440275)	-0.13	6592	inactive
STC2 (GeneID 8614)	3.34	5966	active
PTPN7 (GeneID 5778)	-0.6	6481	inactive
RTN2 (GeneID 6253)	-1.57	4952	inactive
CTHRC1 (GeneID 115908)	-0.04	5433	inactive
RAB34 (GeneID 83871)	-0.35	4777	inactive
H4C14 (GeneID 8370)	-0.15	5284	inactive
CALM1 (GeneID 801)	0	5893	inactive
PLA2G12B (GeneID 84647)	-2.15	5928	active
CYTH2 (GeneID 9266)	1.35	4934	inactive
DCD (GeneID 117159)	2.1	6074	active
ZNF789 (GeneID 285989)	0.3	5037	inactive
ICAM2 (GeneID 3384)	-0.26	6388	inactive
CAVIN2 (GeneID 8436)	-0.43	5278	inactive
EPHA3 (GeneID 2042)	-0.62	4160	inactive
HEPACAM2 (GeneID 253012)	0.15	6692	inactive
ZNF195 (GeneID 7748)	0.38	8112	inactive
NRG3 (GeneID 10718)	0.69	5952	inactive
REEP4 (GeneID 80346)	2.34	6095	active
GPAA1 (GeneID 8733)	-0.62	5050	inactive
P2RY10 (GeneID 27334)	-0.5	6428	inactive
MTAP (GeneID 4507)	1.53	5960	inactive
ATG2B (GeneID 55102)	-0.82	5322	inactive
CHCHD1 (GeneID 118487)	1.18	5927	inactive
PPP1R14A (GeneID 94274)	0.42	6646	inactive
GAS2L1 (GeneID 10634)	-0.29	6101	inactive
GIMAP8 (GeneID 155038)	-2.92	6524	active

Called active, among the entries above:
gene	migration robust z-score	nuclei per well, duplicate mean	outcome
RBMY1A1 (GeneID 5940)	3.07	6535	active
STC2 (GeneID 8614)	3.34	5966	active
PLA2G12B (GeneID 84647)	-2.15	5928	active
DCD (GeneID 117159)	2.1	6074	active
REEP4 (GeneID 80346)	2.34	6095	active
GIMAP8 (GeneID 155038)	-2.92	6524	active
